According to patent publication US20260070911A1, “INHIBITORS OF TAM RECEPTORS” (National Health Research Institutes, priority 2022, published 2026):
At least one compound was matched to its structure with a doubt left.

Each molecule was assayed on MER/AXL (assay: Dual MER/AXL inhibition (enzymatic)). Details: class for both MER and AXL.
Format: biochemical
Protocol: A purified kinase (AXL or MERTK) was incubated with a compound or DMSO (control) for 15 minutes in an assay buffer (25 mM Tri s pH 7.4, 10 mM MgCl2, 4 mM MnCl2, 2 mM DTT, 0.0100 BSA, 0.02% TritonX-100, 0.0100 Brij35 and 0.5 mM Na3VO4 for MERTK; and 40 mM Tri s pH 7.4, 20 mM MgCl2, 2 mM DTT, 0.01% BSA and 0.5 mM Na3VO4 for AXL). […] The mixture was incubated for 3 hours at 30° C. The luminescence was calculated to determine the kinase activity using a Kinase Glo assay kit for MERTK and an ADP-Glo Kinase Assay kit for AXL following the manufacture's instructions (Promega Corp., Madison, Wisconsin).

First: CC(=O)Nc1cccc(-c2c(Br)oc3ncnc(Oc4ccc(NC(=O)c5cccn(-c6ccc(F)cc6)c5=O)cc4)c23)c1 [Compound 49]
Second: Cn1cc(-c2oc3ncnc(Oc4ccc(NC(=O)c5cccn(-c6ccc(F)c(Cl)c6)c5=O)cc4)c3c2-c2cccc(N)c2)cn1 [Compound 96]
The IC50 of the first is higher: 100 to 50000 nM for the first, 20 to 100 nM for the second. The second is the more potent here.

Compared with `NCc1cccc(-c2c[nH]c3ncnc(Nc4ccc(NC(=O)c5cccn(-c6ccc(F)cc6)c5=O)cc4)c23)c1` [Compound 15], `CN(C)Cc1cccc(-c2c(-c3cnn(C)c3)oc3ncnc(Oc4ccc(NC(=O)c5cccn(-c6ccc(F)c(Cl)c6)c5=O)cc4)c23)c1` [Compound 97] is lower in IC50: 100 to 50000 nM for the first, 20 to 100 nM for the second.
